According to the supplement of paper PMC10849652:
Some of the results follow.

Sequences of proteins named here, by UniProt entry; tags and fusion partners are left off. A change or cut given only in a name is not applied to a line headed by its entry.
UniProt Q86UT6, whole entry, looked up: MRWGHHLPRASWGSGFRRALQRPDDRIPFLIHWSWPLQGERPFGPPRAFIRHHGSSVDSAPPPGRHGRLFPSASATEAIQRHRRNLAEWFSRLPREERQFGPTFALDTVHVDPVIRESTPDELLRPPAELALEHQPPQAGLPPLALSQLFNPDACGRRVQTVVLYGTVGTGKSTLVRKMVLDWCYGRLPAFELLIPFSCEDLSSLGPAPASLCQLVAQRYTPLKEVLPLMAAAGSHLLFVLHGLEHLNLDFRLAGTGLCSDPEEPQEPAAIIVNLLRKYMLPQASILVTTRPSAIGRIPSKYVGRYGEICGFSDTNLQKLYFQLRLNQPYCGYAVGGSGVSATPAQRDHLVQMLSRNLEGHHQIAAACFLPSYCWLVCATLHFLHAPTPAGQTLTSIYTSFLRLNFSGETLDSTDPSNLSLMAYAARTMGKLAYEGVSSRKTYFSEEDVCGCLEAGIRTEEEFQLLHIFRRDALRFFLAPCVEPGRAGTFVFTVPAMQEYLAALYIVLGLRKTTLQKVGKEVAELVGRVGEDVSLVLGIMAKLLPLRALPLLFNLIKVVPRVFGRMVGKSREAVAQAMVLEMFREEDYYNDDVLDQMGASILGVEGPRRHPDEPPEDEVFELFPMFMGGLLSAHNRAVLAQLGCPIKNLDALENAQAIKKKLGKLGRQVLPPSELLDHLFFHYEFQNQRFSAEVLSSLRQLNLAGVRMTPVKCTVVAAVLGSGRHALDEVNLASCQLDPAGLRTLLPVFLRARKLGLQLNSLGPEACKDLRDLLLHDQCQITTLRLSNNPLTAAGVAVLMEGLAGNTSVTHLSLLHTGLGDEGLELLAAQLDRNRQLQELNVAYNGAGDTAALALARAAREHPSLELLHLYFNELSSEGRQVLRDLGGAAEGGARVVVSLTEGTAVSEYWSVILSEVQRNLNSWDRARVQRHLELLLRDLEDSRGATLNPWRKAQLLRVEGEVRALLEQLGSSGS
UniProt P04150: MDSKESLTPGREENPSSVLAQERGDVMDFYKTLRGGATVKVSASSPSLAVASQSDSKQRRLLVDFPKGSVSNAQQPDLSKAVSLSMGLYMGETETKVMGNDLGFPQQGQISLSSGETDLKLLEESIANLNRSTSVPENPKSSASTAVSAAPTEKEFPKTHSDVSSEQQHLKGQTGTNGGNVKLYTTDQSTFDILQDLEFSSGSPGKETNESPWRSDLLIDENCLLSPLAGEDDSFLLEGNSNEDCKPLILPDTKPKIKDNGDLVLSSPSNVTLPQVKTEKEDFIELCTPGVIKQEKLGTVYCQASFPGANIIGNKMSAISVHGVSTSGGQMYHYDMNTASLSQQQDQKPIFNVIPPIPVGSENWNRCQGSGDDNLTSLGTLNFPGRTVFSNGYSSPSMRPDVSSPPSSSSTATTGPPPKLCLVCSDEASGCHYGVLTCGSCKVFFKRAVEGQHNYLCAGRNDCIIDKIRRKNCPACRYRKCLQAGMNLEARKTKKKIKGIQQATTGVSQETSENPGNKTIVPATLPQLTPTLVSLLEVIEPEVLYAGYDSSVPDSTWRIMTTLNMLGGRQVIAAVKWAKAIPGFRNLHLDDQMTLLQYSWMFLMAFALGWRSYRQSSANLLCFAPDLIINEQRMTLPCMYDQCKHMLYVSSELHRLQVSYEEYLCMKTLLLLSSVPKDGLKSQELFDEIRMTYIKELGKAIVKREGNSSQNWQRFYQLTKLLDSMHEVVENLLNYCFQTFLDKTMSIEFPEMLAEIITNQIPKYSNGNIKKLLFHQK
UniProt P08651, whole entry, looked up: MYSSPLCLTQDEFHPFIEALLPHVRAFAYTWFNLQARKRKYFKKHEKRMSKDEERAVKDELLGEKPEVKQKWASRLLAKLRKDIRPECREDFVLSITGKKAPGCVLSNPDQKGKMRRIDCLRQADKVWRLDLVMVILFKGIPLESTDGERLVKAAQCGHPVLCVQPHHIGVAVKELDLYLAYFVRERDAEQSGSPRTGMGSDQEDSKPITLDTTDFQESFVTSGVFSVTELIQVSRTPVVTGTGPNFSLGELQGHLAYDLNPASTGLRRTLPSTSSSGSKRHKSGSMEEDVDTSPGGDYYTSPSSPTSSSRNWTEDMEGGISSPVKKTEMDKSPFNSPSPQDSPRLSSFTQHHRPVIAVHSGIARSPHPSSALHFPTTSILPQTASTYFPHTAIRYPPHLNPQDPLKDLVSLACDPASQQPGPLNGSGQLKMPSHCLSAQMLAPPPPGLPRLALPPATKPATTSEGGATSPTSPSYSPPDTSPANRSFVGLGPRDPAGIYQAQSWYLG
UniProt O75052: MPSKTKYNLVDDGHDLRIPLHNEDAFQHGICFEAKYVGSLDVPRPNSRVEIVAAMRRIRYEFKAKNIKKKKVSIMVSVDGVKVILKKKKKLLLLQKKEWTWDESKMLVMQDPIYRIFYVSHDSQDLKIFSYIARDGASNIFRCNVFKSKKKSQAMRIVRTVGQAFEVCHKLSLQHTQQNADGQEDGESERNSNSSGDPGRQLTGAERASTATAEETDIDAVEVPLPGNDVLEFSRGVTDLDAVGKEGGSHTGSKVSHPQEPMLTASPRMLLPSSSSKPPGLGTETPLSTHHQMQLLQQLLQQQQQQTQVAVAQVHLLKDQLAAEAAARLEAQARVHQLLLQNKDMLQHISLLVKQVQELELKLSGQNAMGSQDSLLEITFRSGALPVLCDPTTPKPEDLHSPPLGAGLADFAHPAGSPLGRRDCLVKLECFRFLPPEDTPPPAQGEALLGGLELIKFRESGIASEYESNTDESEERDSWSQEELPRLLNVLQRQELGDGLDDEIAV
UniProt Q92686, whole entry, looked up: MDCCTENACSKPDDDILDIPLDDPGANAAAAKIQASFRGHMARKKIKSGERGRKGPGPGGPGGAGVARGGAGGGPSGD
UniProt P48645: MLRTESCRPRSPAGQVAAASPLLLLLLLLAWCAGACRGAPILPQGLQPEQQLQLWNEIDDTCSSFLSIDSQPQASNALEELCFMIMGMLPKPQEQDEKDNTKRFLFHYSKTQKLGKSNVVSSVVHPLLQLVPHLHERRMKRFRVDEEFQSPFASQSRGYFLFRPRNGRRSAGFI
UniProt Q8NC67: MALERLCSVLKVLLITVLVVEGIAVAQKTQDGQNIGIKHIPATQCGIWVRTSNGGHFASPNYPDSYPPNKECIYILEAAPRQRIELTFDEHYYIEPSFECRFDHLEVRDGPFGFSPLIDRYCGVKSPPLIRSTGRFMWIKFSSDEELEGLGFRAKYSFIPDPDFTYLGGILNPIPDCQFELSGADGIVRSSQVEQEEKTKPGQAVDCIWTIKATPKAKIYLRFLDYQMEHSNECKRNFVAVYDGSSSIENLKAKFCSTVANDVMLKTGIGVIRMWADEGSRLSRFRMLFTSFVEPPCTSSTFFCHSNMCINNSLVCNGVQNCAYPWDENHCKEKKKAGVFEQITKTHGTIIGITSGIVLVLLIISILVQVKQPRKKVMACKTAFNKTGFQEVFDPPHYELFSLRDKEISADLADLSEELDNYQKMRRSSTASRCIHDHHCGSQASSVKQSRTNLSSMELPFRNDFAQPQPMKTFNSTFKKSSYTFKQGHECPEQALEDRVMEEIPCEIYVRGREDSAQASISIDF
UniProt Q8N5F7: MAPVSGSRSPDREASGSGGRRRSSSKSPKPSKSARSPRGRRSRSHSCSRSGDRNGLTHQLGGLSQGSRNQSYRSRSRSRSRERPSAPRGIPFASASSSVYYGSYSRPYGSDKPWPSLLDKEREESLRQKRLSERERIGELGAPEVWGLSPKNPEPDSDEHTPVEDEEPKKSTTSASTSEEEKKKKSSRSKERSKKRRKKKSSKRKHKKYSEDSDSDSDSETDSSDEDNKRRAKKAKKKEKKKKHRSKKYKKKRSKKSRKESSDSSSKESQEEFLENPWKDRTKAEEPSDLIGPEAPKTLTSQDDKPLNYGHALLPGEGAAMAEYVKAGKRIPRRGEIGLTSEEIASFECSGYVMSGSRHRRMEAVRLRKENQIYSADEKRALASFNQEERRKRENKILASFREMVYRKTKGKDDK
UniProt Q9NPE3: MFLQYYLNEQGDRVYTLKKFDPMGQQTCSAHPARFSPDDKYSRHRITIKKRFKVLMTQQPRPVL
UniProt Q92859: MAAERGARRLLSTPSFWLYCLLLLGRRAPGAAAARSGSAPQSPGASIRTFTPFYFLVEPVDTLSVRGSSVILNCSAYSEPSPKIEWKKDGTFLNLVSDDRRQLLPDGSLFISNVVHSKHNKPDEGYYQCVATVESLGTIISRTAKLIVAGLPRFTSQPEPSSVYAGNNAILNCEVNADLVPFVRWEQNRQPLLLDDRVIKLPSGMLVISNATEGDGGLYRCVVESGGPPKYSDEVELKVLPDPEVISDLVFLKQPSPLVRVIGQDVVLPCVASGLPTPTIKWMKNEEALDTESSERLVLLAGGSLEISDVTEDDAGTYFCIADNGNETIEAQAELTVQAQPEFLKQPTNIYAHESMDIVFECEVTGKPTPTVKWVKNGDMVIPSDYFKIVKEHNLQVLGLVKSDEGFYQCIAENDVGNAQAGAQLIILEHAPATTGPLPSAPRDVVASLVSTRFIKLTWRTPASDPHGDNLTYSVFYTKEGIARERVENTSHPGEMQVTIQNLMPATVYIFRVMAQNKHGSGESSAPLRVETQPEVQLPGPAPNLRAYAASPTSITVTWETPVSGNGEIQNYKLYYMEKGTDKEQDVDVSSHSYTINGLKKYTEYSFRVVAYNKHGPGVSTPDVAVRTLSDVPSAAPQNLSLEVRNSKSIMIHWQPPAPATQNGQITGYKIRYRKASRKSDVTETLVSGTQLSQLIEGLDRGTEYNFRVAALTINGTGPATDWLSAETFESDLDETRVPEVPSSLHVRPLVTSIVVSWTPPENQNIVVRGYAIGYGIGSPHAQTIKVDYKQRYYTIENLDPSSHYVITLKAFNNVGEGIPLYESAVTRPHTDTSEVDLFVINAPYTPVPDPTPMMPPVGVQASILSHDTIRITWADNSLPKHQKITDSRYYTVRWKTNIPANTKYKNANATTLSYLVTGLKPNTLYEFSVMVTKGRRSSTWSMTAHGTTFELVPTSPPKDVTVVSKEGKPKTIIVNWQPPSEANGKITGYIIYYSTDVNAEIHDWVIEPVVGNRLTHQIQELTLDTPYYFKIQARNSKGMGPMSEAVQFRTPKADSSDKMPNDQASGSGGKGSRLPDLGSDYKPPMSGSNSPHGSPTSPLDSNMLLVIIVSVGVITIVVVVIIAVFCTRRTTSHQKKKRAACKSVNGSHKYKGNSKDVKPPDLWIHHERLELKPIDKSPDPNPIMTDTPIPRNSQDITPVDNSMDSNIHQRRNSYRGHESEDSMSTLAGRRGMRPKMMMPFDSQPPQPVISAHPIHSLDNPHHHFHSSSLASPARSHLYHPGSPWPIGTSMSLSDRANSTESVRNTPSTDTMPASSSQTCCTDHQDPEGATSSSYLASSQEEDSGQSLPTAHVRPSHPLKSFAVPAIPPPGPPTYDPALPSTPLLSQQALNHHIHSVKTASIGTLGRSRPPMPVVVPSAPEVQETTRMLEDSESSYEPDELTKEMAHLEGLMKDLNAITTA
UniProt Q86YC3: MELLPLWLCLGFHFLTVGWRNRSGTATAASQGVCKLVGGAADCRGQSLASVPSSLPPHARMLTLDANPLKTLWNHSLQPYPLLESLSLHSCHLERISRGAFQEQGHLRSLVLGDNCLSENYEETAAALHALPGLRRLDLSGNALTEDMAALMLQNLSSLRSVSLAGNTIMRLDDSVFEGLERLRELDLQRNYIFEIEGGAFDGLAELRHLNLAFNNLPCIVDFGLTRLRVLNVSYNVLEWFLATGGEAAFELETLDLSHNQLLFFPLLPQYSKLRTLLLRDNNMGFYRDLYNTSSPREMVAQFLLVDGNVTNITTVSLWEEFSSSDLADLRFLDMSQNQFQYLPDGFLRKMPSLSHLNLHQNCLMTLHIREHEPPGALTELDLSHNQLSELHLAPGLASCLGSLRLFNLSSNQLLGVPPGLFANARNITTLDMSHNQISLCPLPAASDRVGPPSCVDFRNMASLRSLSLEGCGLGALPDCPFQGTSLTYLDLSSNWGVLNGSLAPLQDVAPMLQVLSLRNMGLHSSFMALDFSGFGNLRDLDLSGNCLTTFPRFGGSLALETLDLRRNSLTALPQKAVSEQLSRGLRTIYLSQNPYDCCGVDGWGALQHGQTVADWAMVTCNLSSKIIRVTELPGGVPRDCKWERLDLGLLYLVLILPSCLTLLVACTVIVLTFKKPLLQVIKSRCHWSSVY
UniProt Q9NQ35: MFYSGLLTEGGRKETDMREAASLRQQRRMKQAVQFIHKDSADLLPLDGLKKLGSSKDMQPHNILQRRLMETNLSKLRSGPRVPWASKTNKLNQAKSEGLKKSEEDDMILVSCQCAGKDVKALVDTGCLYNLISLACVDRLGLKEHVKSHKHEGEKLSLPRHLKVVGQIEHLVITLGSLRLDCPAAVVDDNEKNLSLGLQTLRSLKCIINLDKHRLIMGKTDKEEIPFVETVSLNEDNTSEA

Key:
Test in all cases: log2 fold change, soluble protein after heating vs DMSO (PISA); higher = thermal stabilisation; K562 cells, 10 uM, 30 min; active = over 0.2 and 3.5 SD of the protein, either way, in both replicates (recomputed)
[1] = compound: NC(=O)Nc1cc(-c2cccc(F)c2)sc1C(=O)N[C@H]1CCCNC1
Method in brief: (§1)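 Aliquots of K562 cells (2×10^6 cells/mL) treated with 10 μM compound for 30 min were heated for 3 min over 48°C-58°C. After pooling and extraction in PBS with 0.5% NP-40 at 4°C, soluble protein from a 21,000xg, 90 min spin was quantified by TMTpro 16plex LC-MS/MS with channel sums equalised. Thermal stability is expressed against control samples, from duplicates, as a log2 fold change.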

[2] = compound: NC1(c2ccc(-c3nc4ccn5c(=O)[nH]nc5c4cc3-c3ccccc3)cc2)CCC1
Method in brief: as §1

[3] = compound: NCC(=O)Nc1ccc(-n2nc(C(F)(F)F)cc2-c2ccc3c(ccc4ccccc43)c2)cc1
Method in brief: as §1

[4] = compound: Nc1ccccc1NC(=O)c1ccc(CNC(=O)OCc2cccnc2)cc1 [entinostat]
Method in brief: as §1

[5] = compound: O=C(CCCCCCNC(=O)c1cnc(N(c2ccccc2)c2ccccc2Cl)nc1)NO [citarinostat]
Method in brief: as §1

[6] = compound: O=C(O)c1ccc2c(c1)nc(Nc1cccc(Cl)c1)c1ccncc12 [silmitasertib]
Method in brief: as §1

[7] = compound: O=C1NC(=O)C(c2cnc3ccccn23)=C1c1cn2c3c(cc(F)cc13)CN(C(=O)N1CCCCC1)CC2
Method in brief: as §1

[8] = compound: c1cc(OCCN2CCCCC2)cc(-c2n[nH]c3ccc(-c4nnc[nH]4)cc23)c1
Method in brief: as §1

[9] = compound: c1cn2cc(-c3ccc4cn[nH]c4c3)nc(Nc3ccc(N4CCOCC4)cc3)c2n1 [entospletinib]
Method in brief: as §1

[10] = compound: NC(=O)c1cnc(N[C@@H]2CCCC[C@@H]2N)nc1Nc1cccc(-n2nccn2)c1
Method in brief: as §1

[11] = compound: O=C(CCCCCCC(=O)Nc1ccccc1)NO [vorinostat]
Method in brief: as §1

Measured: log2 fold change

NOL3 isoform 3 (UniProt O60936)
inactive: [1] -0.135 | [2] -0.018 | [3] 0.001 | [4] -0.04 | [5] -0.054 | [6] 0.006 | [7] 0.088 | [8] -0.072 | [9] 0.004

NOL4L (UniProt Q96MY1)
inactive: [1] 0.092 | [4] 0.076 | [7] 0.002

NEURL4 (UniProt Q96JN8)
inactive: [1] -0.011 | [10] -0.285 | [3] 0.098 | [4] -0.078 | [5] -0.105 | [8] 0.726 | [9] 0.455

NRSN2 (UniProt Q9GZP1)
inactive: [1] 0.155 | [4] -0.063 | [7] -0.002

NLRX1 (UniProt Q86UT6)
inactive: [1] 0.169 | [4] 0.104 | [7] -0.089

NR3C1 isoform 3 (UniProt P04150)
inactive: [10] 0.031 | [2] -0.102 | [5] -0.07 | [6] 0.072 | [7] -0.119 | [8] -0.404 | [9] 0.22

NFIC isoform 6 (UniProt P08651)
inactive: [3] -0.395

NOD1 (UniProt Q9Y239)
inactive: [1] -0.064 | [4] -0.141 | [11] -0.157 | [5] -0.076 | [7] 0.056 | [8] 0.137 | [9] 0.116

NOMO3 (UniProt P69849)
inactive: [1] 0.006 | [4] 0.064 | [7] -0.014

NSA2 (UniProt O95478)
inactive: [11] -0.022 | [7] 0

NOMO1 (UniProt Q15155)
inactive: [1] -0.063 | [10] 0.147 | [3] -0.001 | [4] -0.004 | [11] 0.069 | [5] -0.11 | [7] -0.009 | [8] 0 | [9] 0.029

NSD3 (UniProt Q9BZ95)
inactive: [1] -0.21 | [10] -0.093 | [3] -0.242 | [4] -0.131 | [11] -0.037 | [7] 0.135

NKTR (UniProt P30414)
inactive: [2] 0.074 | [6] -0.023

NOTCH2 (UniProt Q04721)
inactive: [10] 0.077

NEU3 isoform 2 (UniProt Q9UQ49)
inactive: [1] 0.112 | [4] -0.071

NOL8 (UniProt Q76FK4)
inactive: [11] -0.156

NKIRAS2 (UniProt Q9NYR9)
inactive: [1] -0.134 | [2] -0.117 | [4] 0 | [6] -0.145 | [7] -0.045

NOC3L (UniProt Q8WTT2)
inactive: [10] -0.489 | [2] -0.134 | [11] 0.004 | [6] 0.39 | [7] -0.057

NELFCD (UniProt Q8IXH7)
inactive: [10] -0.005 | [3] -0.321 | [11] 0.234 | [7] -0.12

NMNAT3 (UniProt Q96T66)
inactive: [1] 0.178 | [2] 0.031 | [4] 0 | [5] -0.105 | [6] -0.073 | [7] -0.327 | [8] 0.02 | [9] -0.068

NOC4L (UniProt Q9BVI4)
inactive: [11] -0.011

NOS1AP (UniProt O75052)
inactive: [2] -0.27 | [3] -0.302 | [5] -0.225 | [6] 0.312 | [7] -0.186 | [8] 0.59

NRGN (UniProt Q92686)
inactive: [10] 0.144 | [11] -0.231 | [7] -0.215

NOTCH1 (UniProt P46531)
inactive: [7] 0.039

NFATC1 (UniProt O95644)
inactive: [1] -0.295 | [2] -0.101 | [3] -0.025 | [4] 0.071 | [5] 0.036 | [6] 0.186 | [7] -0.267 | [8] -0.022 | [9] -0.088

NIPSNAP2 (UniProt C9J7B1)
inactive: [1] -0.009 | [10] 0.175 | [2] -0.017 | [4] 0.148 | [6] 0.019

NMU (UniProt P48645)
inactive: [10] -0.023 | [3] 0.132 | [11] 0.041 | [5] 0.043 | [7] 0.144 | [8] -0.08

NFKBIA (UniProt P25963)
inactive: [1] -0.047 | [3] 0.048 | [4] 0.309 | [11] 0.037 | [5] 0.085 | [8] -0.026 | [9] 0.015

NETO2 (UniProt Q8NC67)
inactive: [3] -0.037

NKAP (UniProt Q8N5F7)
inactive: [10] -0.043 | [2] 0.027 | [3] -0.028 | [11] 0.019 | [5] 0.099 | [6] -0.132 | [7] 0.111 | [8] -0.144

NOP10 (UniProt Q9NPE3)
inactive: [2] 0.064 | [6] -0.012

NEO1 (UniProt Q92859)
inactive: [10] -0.419 | [2] -0.125 | [3] 0.206 | [5] -0.347 | [6] 0.201 | [8] -0.297 | [9] 0.555

NRROS (UniProt Q86YC3)
inactive: [11] 0.059

Fetched one by one from above, 2 records:
NEU3 isoform 2 (UniProt Q9UQ49)
inactive: [1] 0.112 | [4] -0.071

NETO2 (UniProt Q8NC67)
inactive: [3] -0.037

More records:

NRIP3 (UniProt Q9NQ35)
inactive: [1] 0.247 | [10] 0.12 | [4] 0.024
